## Library screening results

Each number is a percent effect as filed. The record does not define 0% and 100%; most values in the screen are far below 50% and negative numbers occur (in some assays of this library far below -100). This is an unselected part of the compounds tested. Two or more numbers in one place are separate tests of the same structure; such repeats can differ widely.

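Viability assay of Plasmodium falciparum sporozoites; the read-out is not stated. The concentration is filed as 10 mM, unlikely as a test dose, so the dose is not known. The record gives no direction; compounds that gave an IC50 in retests scored well above the rest, so higher reads as lower viability. Strong results were mostly tested again. About 34,000 compounds were tested under these conditions; 0.84% (about 280) showed 50% or more at least once.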

{"compound": "Cn1cc(C2CCCN2C(=O)COCCc2ccccc2)cn1", "stereo": "stereo unspecified", "effect": 12.52}
{"compound": "O=C(O)C(F)(F)F.[H][C@@]12COC[C@]1([H])[C@@H](OCC1CCOCC1)CN2Cc1ccc(OC)cc1", "effect": 6.08}
{"compound": "CC(C)OCCOCc1cccc(NC(=O)NCCn2ccnc2)c1", "effect": -8.288}
{"compound": "[H][C@@]12CCN(S(=O)(=O)c3cccnc3)C[C@]1(c1nnc(C)o1)CCO2", "effect": -10.16}
{"compound": "O=C(O)C(F)(F)F.[H][C@@]12CCN(Cc3ccc(C)o3)[C@@]1([H])CCN2C(=O)Cc1cccs1", "effect": 1.519}
{"compound": "[H][C@@]12COC[C@]1([H])[C@@H](OCC1CC1)CN2C(=O)c1ccnnc1", "effect": -16.06}
{"compound": "Cc1ccc(CN2CCCC(c3cncc(C)n3)C2)cn1", "stereo": "stereo unspecified", "effect": 7.699}
{"compound": "CC(C)OCCCNC(=O)CS(=O)(=O)Cc1ccc(C(C)(C)C)cc1", "effect": -6.035}
{"compound": "CC(Cn1ccnc1)NC(=O)N1CCN(Cc2ccncc2)CC1", "stereo": "stereo unspecified", "effect": 7.249}
{"compound": "CC(C)c1ncc2c(n1)CN(Cc1nc(-c3cccnc3)no1)CC2", "effect": "-8.709 and -6.067 and 9.982"}
{"compound": "CN(C)CCN1C(=O)CCC12CCCN(C(=O)c1ccncc1F)C2.O=C(O)C(F)(F)F", "stereo": "stereo unspecified", "effect": 12.41}
{"compound": "Cn1nccc1C1CCN(CC(=O)NCC2CC2)CC1", "effect": 0.23}
{"compound": "O=C(O)C(F)(F)F.O=C(O)C(F)(F)F.O=C1N(Cc2cccnc2)CCC12CCCN(c1ncccn1)C2", "stereo": "stereo unspecified", "effect": -10.75}
{"compound": "CCCNC(=O)C1CCN(Cc2csc(C(C)C)n2)CC1", "effect": -1.61}
{"compound": "O=C(CCc1ccc(Cl)cc1)N1CCC(O)(C(F)(F)F)C1", "stereo": "stereo unspecified", "effect": -11.2}
{"compound": "CC(Cn1cccn1)NCc1nc(-c2ccco2)no1", "stereo": "stereo unspecified", "effect": 11.58}
{"compound": "Fc1ccc(-c2nnc(CN3CCn4c(nnc4C4CC4)C3)o2)cc1", "effect": -23.04}
{"compound": "Cc1nn(C)cc1C(=O)N1CCC(CSc2ccccc2)C1", "stereo": "stereo unspecified", "effect": 6.77}
{"compound": "CCN(CC)CCNC(=O)CCc1c(C)nn(-c2ccccc2Cl)c1C", "effect": -18.98}
{"compound": "O=C(O)C(F)(F)F.O=C(O)C(F)(F)F.[H][C@@]12COC[C@H](C(=O)NCc3ccccn3)[C@]1([H])CN(CC1CC1)C2", "effect": 8.505}
{"compound": "c1ccc(-c2noc(CN3CCC(c4ccn[nH]4)CC3)n2)cc1", "effect": -15.41}
{"compound": "COc1cc(CNC2CCN(c3ccccc3)C2)cc(OC)c1OC", "stereo": "stereo unspecified", "effect": -0.6857}
{"compound": "O=C(C1CCC1)N1CCCC1c1nnc2n1CCCCC2", "stereo": "stereo unspecified", "effect": 6.088}
{"compound": "CC(C)c1nc(C2CCCN2Cc2cc(=O)n(C)c(=O)n2C)no1", "stereo": "stereo unspecified", "effect": -3.746}
{"compound": "Cc1nccn1CC(=O)N1CC(Cc2nccc3ccn(C)c23)C1", "effect": 26.06}
{"compound": "CCC(=O)N1CCC(Cc2ccccc2-c2ccccc2F)(C(N)=O)C1", "stereo": "stereo unspecified", "effect": 0.6078}
{"compound": "O=C(c1cnccn1)N1CCc2c(COCC3CC3)cncc2C1", "effect": 9.259}
{"compound": "CN(Cc1ccc(F)cc1)C(=O)Cn1nc(-c2ccc(F)cc2)oc1=O", "effect": 10.94}
{"compound": "FC(F)(F)CCc1ccnc(N[C@H]2CC[C@H](n3cnnc3)CC2)n1", "effect": -2.664}
{"compound": "O=C(Nc1cc(C(F)(F)F)c[nH]c1=O)N1CCSCC1", "effect": 2.489}
{"compound": "CCN1CCC(NC(=O)NCC(O)c2ccc(Cl)c(F)c2)CC1", "stereo": "stereo unspecified", "effect": -0.1304}
{"compound": "Cn1cc(C2CCCN2C(=O)c2ccc(OCC3CC3)nc2)cn1", "stereo": "stereo unspecified", "effect": -0.587}
{"compound": "COCc1noc(-c2ccc(N3CCCCC3CCCO)nc2)n1", "stereo": "stereo unspecified", "effect": "-15.89 and -23.28 and 10.25"}
{"compound": "[H][C@@]12CCCCCN(C(C)=O)[C@@]1([H])[C@H](c1cccc(F)c1)CN2CCC(N)=O", "effect": 2.601}

Source: ChEMBL document CHEMBL3988442, “University of Dundee, Small-Polar-MMV Screening Library” (2021).